Experimental data: patent US7304037B2, “Cytostatic conjugates with integrin ligands” (priority 2001, dated 2007)
Like-named read-outs stand apart in the source and are kept apart here. At least one structure is not confirmed: it was looked up by name or label, or the drawing left a doubt.

How the values were obtained:
[1] = test system: melanoma xenograft (MEXF 989); assay type: in vivo, athymic nude mice (NMRI nu/nu strain)
[2] = test system: renal xenograft (RXF 944)
[3] = test system: breast cancer model (MX-1)

Question: With `CCCNC(=O)Nc1cccc(S(=O)(=O)Nc2cccc(C(CC(=O)[O-])NC(=O)Nc3ccc(NC(=S)NCC(=O)N4CCC[C@H]4C(=O)N[C@H](C(=O)O[C@]4(CC)C(=O)OCc5c4cc4n(c5=O)Cc5cc6ccccc6nc5-4)C(C)C)cc3)c2)c1.[Na+]` (single isomer, unassigned) [Example 1] as the molecule, how does the “optimal T/C” value ([1]; MEXF 989, 18 mg/kg/day intravenously day 1–3 and day 15–17) read?
Answer: 7.2%

Question: And the “optimal T/C” value ([1]; MEXF 989, 24 mg/kg/day intravenously day 1–3 and day 15–17)?
Answer: 3.2%

Question: And the “inhibition of the tumour growth (in words)” value (“inhibition” for short) ([1]; MEXF 989, intravenously day 1–3 and day 15–17)?
Answer: effected inhibitions of the tumour growth

Question: What about the “optimal T/C” value ([2]; RXF 944, 18 mg/kg/day intravenously day 1–3 and day 15–17) of the same molecule?
Answer: 12.4%

Question: What about the “optimal T/C” value ([2]; RXF 944, 24 mg/kg/day intravenously day 1–3 and day 15–17) of the same molecule?
Answer: 5.1%

Question: What about the “inhibition” value ([2]; RXF 944, intravenously day 1–3 and day 15–17) of the same molecule?
Answer: effected inhibitions of the tumour growth

Question: What about the “optimal T/C” value ([3]; MX-1, 18 mg/kg/day intravenously day 1–3 and day 15–17) of the same molecule?
Answer: 1.7%

Question: And the “inhibition” value ([3]; MX-1, intravenously day 1–3 and day 15–17)?
Answer: effected inhibitions of the tumour growth
